Experimental data: PMC9115032
No constants are given. Whether binding was seen depends on the method and setting. In cells and extracts the contact can be indirect. A yes stands for co-enrichment or nearness to the bait. Other partners may have been found.

Sequences of proteins named here, by UniProt entry; tags and fusion partners are left off. Residues count along the entry.
UniProt Q9NZQ7, residues 19-290: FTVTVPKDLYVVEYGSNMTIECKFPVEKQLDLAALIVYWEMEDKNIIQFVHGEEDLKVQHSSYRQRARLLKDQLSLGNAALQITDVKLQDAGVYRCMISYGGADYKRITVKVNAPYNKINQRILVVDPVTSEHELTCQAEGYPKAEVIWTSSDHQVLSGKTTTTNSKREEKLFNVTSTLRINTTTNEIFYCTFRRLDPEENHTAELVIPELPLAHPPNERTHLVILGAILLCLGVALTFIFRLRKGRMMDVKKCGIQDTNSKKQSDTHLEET
UniProt Q9NRR5: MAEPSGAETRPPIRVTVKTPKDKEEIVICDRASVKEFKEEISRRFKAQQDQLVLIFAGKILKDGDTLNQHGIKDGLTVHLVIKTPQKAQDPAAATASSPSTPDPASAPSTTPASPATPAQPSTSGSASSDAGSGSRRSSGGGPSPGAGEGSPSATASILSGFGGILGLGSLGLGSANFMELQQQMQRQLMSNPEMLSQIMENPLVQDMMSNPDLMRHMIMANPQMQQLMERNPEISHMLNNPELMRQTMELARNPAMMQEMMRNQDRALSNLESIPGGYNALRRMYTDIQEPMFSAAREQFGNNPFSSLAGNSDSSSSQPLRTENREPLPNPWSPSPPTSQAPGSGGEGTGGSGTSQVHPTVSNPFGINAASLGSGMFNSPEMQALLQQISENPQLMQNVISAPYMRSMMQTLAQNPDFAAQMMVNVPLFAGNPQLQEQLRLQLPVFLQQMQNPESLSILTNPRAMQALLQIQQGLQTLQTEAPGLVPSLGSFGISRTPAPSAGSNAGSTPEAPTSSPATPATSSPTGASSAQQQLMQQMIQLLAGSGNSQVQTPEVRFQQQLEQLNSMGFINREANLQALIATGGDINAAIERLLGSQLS

Target: PD-L1 (human (endogenous in A375)) (UniProt Q9NZQ7)
Test: affinity purification with mass spectrometry; immunoprecipitates from A375 cells treated with ABZ (1.25 uM) or DMSO, separated by SDS-PAGE, silver stained, bands analysed by LC/MS-MS

binding: binds
Substance: UBQLN4 (from UniProt Q9NRR5 1-601)
